Reference: publication PMC5402319
No signal at the amounts used counts as a negative. Tags and fusion partners may be left off the protein sequences shown. Construct, isoform or probe ends are uncertain for at least one entry.

molecular target: T1, His6-σ8 (SigB-like sigma factor) (Streptomyces avermitilis) (UniProt Q82PY0); test: EMSA; settings: 0.25-1 uM protein; EMSA with 0.15 nM DIG-labeled probe, 0.25-1 uM His6-σ8, ~300-fold excess unlabeled competitor; pH and temperature not given (as in Sun et al., 2016); recombinant protein; residues 1-279; protein details: N-terminal His6 (pET-28a); label: 3' DIG; probe letters rebuilt from the primers and the genome
T1 sequence (looked up): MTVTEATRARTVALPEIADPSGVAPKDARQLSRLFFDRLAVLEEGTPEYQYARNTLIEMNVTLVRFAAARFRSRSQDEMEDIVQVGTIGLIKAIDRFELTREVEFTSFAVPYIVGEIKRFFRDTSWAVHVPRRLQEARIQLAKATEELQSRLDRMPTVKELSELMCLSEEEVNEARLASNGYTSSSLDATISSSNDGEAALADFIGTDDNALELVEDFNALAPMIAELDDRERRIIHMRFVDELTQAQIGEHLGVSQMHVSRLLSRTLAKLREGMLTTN

Does “TGCTCACCACCAACTGACCCCACTCGTTCGCAACACACCGGCGGCGCTCCGCACCCTGCGAGGGTGGGGAGCGCCGCCCGTTCATTCCAGCAGCCGGGTACGAGGCGGCCGAACGCAAAATCGCTCGGCCGGCCGAGCGGACGCACTCGGCTTGCCCGTCGCCTTCCGCGTCCAGACCCTCGAAGCTGGGCCCGATCCCCACCAGGCGCCGGATGTCGGCATCGACCTGGGCGTCACCCTGCCCATCACTCTGTCGGAGGGCGAAACGCACGAGCCCGGCGAATGGCTGACCCGCAAGGAGCAGGCCGGGCGGGCCCGCGTGATGCACGCAACGCAATCGGGGTGATCTCCGCGTGGAAGGATCTCGACGGGAGTACCGGCGCGGGGATCGGGGATGAACGGAATGATCGGG (double strand) [sav_742p]” bind?
Result: binds

same assay, conditions: EMSA with 0.15 nM DIG-labeled probe, 0.25-1 uM His6-σ8, ~300-fold excess unlabeled competitor; pH and temperature not given (as in Sun et al., 2016); recombinant protein; residues 1-279; protein details: N-terminal His6 (pET-28a); label: 3' DIG; probe letters rebuilt from the primers and the genome

Does “CGGTCACCACTGTTTCGTTCCGGAGGGTGTGCGGACCGTGTGCGAAGCTGCCGAACTGTTATGGCCTGGTTCAACCAGGGTGAAACACTGGGCAGGCTTCGTAGGAAGGCCGGGGCAGGCCGCGCGTCTGCCGTGTACGACCGGCGGCAGCACCTGGCGCGCCGAGTACTAGGACGCGGCAGGCCGAGCAGAAGCGCAGAAGCATCATCAGAAGTATCAGCAAGCCGAGCACGCACAGCAGTATTGGTCGACCCTGCGGGAGGGACACAGTGGAGTCTGGCG (double strand) [osaAp]” bind?
Result: binds

Does “GAAATGAATCGCCCATGACTTGACCCCCGATGTCTGGGTACGCAGAGCGGGCGGCCGACTCAGCTGGGGCGCGAGGAGCGGACAAGATGGACGGGGCTGCCTTGGGTACCACGGCCGCACTCTCTTCGGCACGCCGGTTCATTCCGTCGACGCGTGCCCTGGTGCGGGTCTCACCGCACCATGAGAAATTGACGGGCAAAAGGCCGCCTTCTCATATTTCGCCCCATGCGTTCGCCTGCCACAGCACTCGACACTCGGCCACCGCGACCGTGGCCGGCCAGACACGAAGGAAGCGTCTCCGATGAGCGAGGCCAACCCCCTCAAGCGAGCAGCACGGAA (double strand) [katBp]” bind?
Result: binds

Does “GTTGGCTGCGTCACCTTTCGCATCATGCCGTACGGCACCGACAGGCACCCCGCCGACGCAGACGTGGCAGTTCAGAGTGCCCTTACGTAACAGAAGTAAACGGATTGTGAACTGGAGCACTCCTGAGTTTGACCCCTTCAAGAGGGGGCAGGCGCCGCGTCGGAGCAGAGCCCGTTGCATTTTCAATCGTCCGAGGGCCTCGCGACGCTCCAGGACGAGAGGT (double strand) [opuAAp]” bind?
Result: no binding

Does “ACATCAGACGAACGCCTCGTGGACGTAGCACCAGCGCCAATCCTCGCCGGGCTGGAACGACTGCACGATCGGATGGGCGTCGGCAGCCGCGTGCCTACGCGCGTGCTTGTTCGGCGAGGAGTCACAGCAGCCGACGTGCCCGCAGGTCAGGCAGAGCCTCAGGTGGACCCACGGGGAGCCGAGCAGCAGACACTCCTGACACCCTTCTGG (double strand) [trxB2p]” bind?
Result: binds

Does “GGAAAGCCGCTGGTCAGACGGCTCGTTCCGGACCCGGTACCGGTCGTCGGGGACCCGTCGCCGGTCCGCGGGGCGGGCCTCGTGGCGTCCGGAGCGTGCGCTCGCAAGGCGCGGGGAGGTCCGCGACGAGGCCCGCGAAGGGAGTCCCCCCGGTCCTTGCACCTTGGCGGAGGAGCTGCCGGGCCGTTCCCGCAGCACGGCGAGCGTGTGCGCCAGGCGACGCGAGGCAGGCAGAAATGCGAGTACAGGGCCTAAGATGGCGCGCCCCGGCCATCCCCTCGCGGTCGCCTCCTCCCGGGACCGCCCGACCCCGCGCCGTCGCCCGTCCCCCCACCAACGGCGCTGCGACGATGGACTCCC (double strand) [htpGp]” bind?
Result: no binding

Does “GCCGACCAGCTCGCTCTCGACGACCGCGGTGGACAGGCCGGCCGCGCGGGTGCGGTCGGCGACGTTCTCCCCCACCGGACCGGCCCCGAGCACCACGACGTCGTACGCGATGGATTCCGTTTCCGTCATGGGGTCAGTCTGGTAGCTGGTGTGCGTGCTGGCCACACGGGTACGCGCGCGGAATACGGCGCCGGAGGGTGGCGTTGTGGACAGCGGCTTGCCCCGAGCCCCCGACACCAGGAAGAGGGAAACACGCC (double strand) [trxA3p]” bind?
Result: binds

Does “TTCAGATGGACGGCTACCGCACCCTGGAAGAGGGTCAGCGGGTCGATTTCGAGATCTCGCAAGGCCAGAAGGGGCCGCAGGCGGACATGGTCCGACTGGCGACCGGCTGAAGCACGCGCCGACTGACTGTTCGACGTGACGAAGGGCCCGTATCCCCTCCGGGGTACGGGCCCTTCGGTCTGCCCCGGGGCGTCCGGAGCGCCTGCGCACGTGTGGGGCGCACAGGTGCGTTCACCTGCGGATTGCCTGGAGCCGCTTGCACTCGGCAGGGGCGAGTGCTAATCATTGGCGTTAGCACTCT (double strand) [groEL2p]” bind?
Result: no binding

Does “TCCAGGACTTCGGGTTCGACCTGGAGGAGACGCGGCCCTTCGTGGAGTGTCTGCGGGCCGGCCACCCGGAGGGCGACTCGTGCCCGGCGTCGCTCGCGGTGTACCGGCGCAAGCTCGGCGAACTCGACGCGCTGATCGGCGAGTTGCAGGCCGTGCGGGCGCAGGTCGGCGACCAGCTGGCGCGGGCCGAGCTGGCCCGCGACGAGCTGGCGGCCGAGGCGGGGGTTCCGGGCGGTCCGGAGCCCGTGTGCGAACTGGGAGGGCAGACGCGGTGATCAAGGCGGCGGGCGTGACCGAAGTGAC (double strand) [sav_2810p]” bind?
Result: no binding

Does “CGTTCTCCTCGAGCCTACAGGCGAGCGGTGGTACCCGCTCCCGGGCCGGCTCATCCCAGATGTTCGGATGATTCCTCTCGTACTCGTGGGGCGACCGGACCCGTGCATTCCTGACTCGCCAGGCGCAGGCGTGGAGGCCCCCGGTTCGTCACCCTGGGGGTGCTCGAGCGCCTTCGTGCGCACGGGTGGGAAACCGGCCGAGGTCCCACCCCTACCTGAACGAACGTGATCCGGAGAGTCGACGCGGGCGCCGTACCGGGAGGAGTTCCCCATGGCCAAGGCAGTGGGCATCGACCTGGGCACCACCAACTCGGTGATCGCCGTGTGGGAG (double strand) [dnaK2p]” bind?
Result: no binding

Does “TGGAGGCACAGCAGAGACGGCTGTACCCCCGCCGCCCTGCCTGGCCGCTTCGGCGCGCGCCTGCTCCGCCTTCGCCTTGGCCTCCTGGGCCGCCTTCACCGCGGCGAGGTCGACGACTCCGCTCATGGACATGTTCCGTGGCTGCATGAGTACATCCTCCCCCTTCCGCGCCCGCGTGTGAAAAGCGTTGTGAAAGCCAGACTTGGCACATGATGATCGGCGCCGGGTCCCCACCTGGCGCCAGTGGTCGTCGCTCGCGTGCGAGTCACCGCGCACGAGCTTTCGCTACGAGTCGTAGCGTAACTGTCCC (double strand) [trxA6p]” bind?
Result: no binding

Does “GGCTTGATGGCAACCTTGGAGCTGGCGGTCGTCACGATCCGACCTCCCCCTTCGGAGATCTCACGGGGTTAACTGTCTGAGGTGGCGACCAGGTCGATCCGTCGTCGCGGGTGCCGGACCTGCCCGTCGCTACTGGCACTCTCCAGTGGGGAGTGCCAGACCTGAGACTATGACCGCGGTTAGCACTCGGTCAAGCGGAGTGCCAAT (double strand) [groES1p]” bind?
Result: no binding

Does “TACGGCGATCATGGTTTCGCCGTCCCCAAACGGGCGCCCCTCGGCCAGGAGCAGGCCCTGGCGATCATCACGGACCGTGTTGTGGAGTGGACCGCGTCACTCGGGTAGGGCCCGGGAATGCGGTGTGGCTGACTGCTGTTGTGGCGAACAGAGAGTGTTCATCGTTCGTACGAGAGGAAGTCCGCCGCATGGGTTCGACCTTCTGCCCGAGCCGAAGCAGCGCCCGTGACCTGGAGTGGTCGGTGCTGCACGCGGCGAAGACCGCCCCGATTCGGGCGGCGGCCGGACCGGATCGTCGTCTATC (double strand) [sig22p]” bind?
Result: binds

Does “CAGCGCCAGCAGATTCTCCGGCCGGTCATCGACCAGGAGGATCTTGGCCTTCTGCACCATGGCCCGCCCTCCTCGCCCCGGCATGGGGCCTCCCCTGTCCGCAGGACTTGGGGAAGCACCGGGCGCCGCCCCAGGGGACGACTCCCTTGCGCCGCCCGTCCTTGTGCCGGTCATGGTAGCCGCACCCCGCCTGTCGCCACACCCTGTCACCGCGATGTCACTGTGCACGTAGCAGAAACGTAGCGGGAGACCAGAAGGTTCCCCGAATCCCGCACTCCTACACGGCGTCCGACACACTCAGTCAGCAACTCCGTGTGAACGTTTCGCGTTCCCGTCACTCCGCACGCATCCACTGTTCCA (double strand) [osaBp]” bind?
Result: binds

Does “CTCACCTCGGGAAAGCACCCGGAGCCGAGCGGTGAGTGGCCGGCGATTCCATGGCCGCCGGTCTAGGGCCCGATGTCGTGGTCGTGAGCACGATTTCGGGGCCGCCGGTGTCGCGGAGCGCCGAACGCATGCCGGGCGGCATTGCGCAAGAGGGCCTTCTCGGTCATCAGGCCTGGTCCGGTTCGTATACGGAACATCCGTCCGGTTAGGCTCATGACATGCATGCCTGGCCCGCTTCTGAGGTCCCCGCCCTGCCTGGTGAGGGCCGCGACCTCCGGATCCACGACACCGCGACCGGCGGGGTAATACCCCTGCACCCCGGTCCCGTCGCCCGTATCTA (double strand) [mshCp]” bind?
Result: binds

same assay, conditions: up to 1 uM protein; EMSA with 0.15 nM DIG-labeled probe, 0.25-1 uM His6-σ8, ~300-fold excess unlabeled competitor; pH and temperature not given (as in Sun et al., 2016); recombinant protein; residues 1-279; protein details: N-terminal His6 (pET-28a); label: 3' DIG; probe letters rebuilt from the primers and the genome

Does “GAAACTCCCTGCATGATGTTCTTATTTCTCCTTTTTCCAAGAAAGCGTGTCTCGGGGATTTCGATTGCTTGAGCAAAAGCGGTCGCGGCCGTGCGGGCTGGGTTGATCAGCATCAGAGGTGATGGTCAGTGTTATGAATTTGCCCTGGTGGGCGGGGTAGTGTCAAGGTCGCTGACTTTGATGATTAACTGATGATCGTGGGATTCTGAGGTGGTGTTCGCGAGGGTGAAGGAGTTCCTTCCTGGAGACATCCGTGCCCCGGATGGCGGTCCACAATTCACGAGTGGGATGCGCAGTGGGTCGCGTGCTGCAACACCGAATGGAATACCGGGTGACCGGTATGTATGGCGGTGCGG (double strand) [aveRp]” bind?
Result: no binding

Does “ATGGTCGGGAACCTCCGCAATCCGGGCCGGGCGGCCCAGCTGTCGTGGCGATCTACTCCAGGAAACGTAGACCTTTTTCTGCCACTTGTCCGAGCTATGCAGACACCCCGATCCCCTAAGAAATGAACACCCTTGGGAACGGCACAGCCCAGGGGTGGATAGGGGTATTCGCCGCCGCCGCGCCGTCATTAGCTTTGAAGAGTTGAAGACGTTCAAGACATTGATGCCCGGCCGTCAGCGGATTTCTCGCGCTCCTTTCATTCTTCGACGCTGCATTGCAGCTCTCATCATGTCCGCACGGCCGCCGAGCATTGCCTAGCGGTGAGGACACAG (double strand) [aveA1p]” bind?
Result: no binding
